# Values quoted from earlier work, collected in patent publication US20030235609A1, “Use of cholinesterase antagonists to treat insulin resistance” (priority 2002, published 2003).
# Key:
# [1] = test system: glucose uptake across the hindlimbs; conditions: cats, following atropine
# [2] = test system: hepatic uptake of glucose; conditions: with atropine; reduced from 80%
# [3] = test system: absorption of orally administered glucose; conditions: conscious dogs
structure (smiles),measurement,setting,value
CN1[C@@H]2CC[C@H]1C[C@@H](OC(=O)C(CO)c1ccccc1)C2 (stereo partly drawn) [atropine],Glucose uptake across the hindlimbs (skeletal muscle) after bolus insulin,[1],decreased
same,Proportion of glucose sequestered by the liver following oral administration,[2],44%
same,Absorption of orally administered glucose,[3],suppressed and delayed
